Results from PMC7066169.
Results are given in words; binding and its absence hold for the method and conditions named. In cells and extracts the contact can be indirect. Some binding calls cover weakened binding; strength is not graded here.

Chains of the proteins cited; added tags and fusions are not shown. Lines headed by an entry give the natural chain unless they say otherwise; changes in a name come on top. A line that says so, or that is headed by a name, gives the form on record, which may keep a tag or linker.
UniProt P02340: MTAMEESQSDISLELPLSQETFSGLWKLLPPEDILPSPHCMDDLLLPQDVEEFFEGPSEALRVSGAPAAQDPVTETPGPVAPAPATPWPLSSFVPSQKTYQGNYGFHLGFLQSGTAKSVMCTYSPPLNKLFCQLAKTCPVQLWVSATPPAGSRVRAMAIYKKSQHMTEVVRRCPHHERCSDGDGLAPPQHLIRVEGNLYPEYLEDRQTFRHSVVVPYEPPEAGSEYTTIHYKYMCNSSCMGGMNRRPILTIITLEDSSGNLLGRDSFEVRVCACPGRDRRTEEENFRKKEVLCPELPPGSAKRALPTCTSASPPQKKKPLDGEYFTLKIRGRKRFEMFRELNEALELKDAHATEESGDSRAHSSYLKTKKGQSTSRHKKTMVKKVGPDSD
UniProt Q9JHD1: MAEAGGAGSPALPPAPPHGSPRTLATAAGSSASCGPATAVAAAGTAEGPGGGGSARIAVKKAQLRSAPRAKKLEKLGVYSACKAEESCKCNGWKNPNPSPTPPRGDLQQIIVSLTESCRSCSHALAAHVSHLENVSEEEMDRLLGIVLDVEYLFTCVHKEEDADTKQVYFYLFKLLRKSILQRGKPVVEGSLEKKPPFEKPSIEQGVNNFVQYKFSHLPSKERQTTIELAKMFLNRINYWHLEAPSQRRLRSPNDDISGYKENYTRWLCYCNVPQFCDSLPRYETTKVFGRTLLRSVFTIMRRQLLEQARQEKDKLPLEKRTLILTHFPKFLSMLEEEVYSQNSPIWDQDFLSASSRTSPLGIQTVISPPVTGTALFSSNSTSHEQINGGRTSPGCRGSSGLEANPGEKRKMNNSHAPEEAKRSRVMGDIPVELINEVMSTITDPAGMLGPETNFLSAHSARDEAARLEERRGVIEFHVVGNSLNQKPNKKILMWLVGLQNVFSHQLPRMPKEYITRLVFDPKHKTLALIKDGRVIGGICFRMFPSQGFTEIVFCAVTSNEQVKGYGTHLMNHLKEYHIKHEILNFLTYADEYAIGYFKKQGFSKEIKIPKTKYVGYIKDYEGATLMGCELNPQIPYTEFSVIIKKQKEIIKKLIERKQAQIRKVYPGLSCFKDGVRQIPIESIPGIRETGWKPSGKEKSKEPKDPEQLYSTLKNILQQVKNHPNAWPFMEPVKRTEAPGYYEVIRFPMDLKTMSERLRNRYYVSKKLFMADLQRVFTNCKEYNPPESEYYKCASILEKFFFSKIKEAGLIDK
Nuclear myosin 1 (mouse (endogenous in MEFs)) (Q9WTI7-3, form named): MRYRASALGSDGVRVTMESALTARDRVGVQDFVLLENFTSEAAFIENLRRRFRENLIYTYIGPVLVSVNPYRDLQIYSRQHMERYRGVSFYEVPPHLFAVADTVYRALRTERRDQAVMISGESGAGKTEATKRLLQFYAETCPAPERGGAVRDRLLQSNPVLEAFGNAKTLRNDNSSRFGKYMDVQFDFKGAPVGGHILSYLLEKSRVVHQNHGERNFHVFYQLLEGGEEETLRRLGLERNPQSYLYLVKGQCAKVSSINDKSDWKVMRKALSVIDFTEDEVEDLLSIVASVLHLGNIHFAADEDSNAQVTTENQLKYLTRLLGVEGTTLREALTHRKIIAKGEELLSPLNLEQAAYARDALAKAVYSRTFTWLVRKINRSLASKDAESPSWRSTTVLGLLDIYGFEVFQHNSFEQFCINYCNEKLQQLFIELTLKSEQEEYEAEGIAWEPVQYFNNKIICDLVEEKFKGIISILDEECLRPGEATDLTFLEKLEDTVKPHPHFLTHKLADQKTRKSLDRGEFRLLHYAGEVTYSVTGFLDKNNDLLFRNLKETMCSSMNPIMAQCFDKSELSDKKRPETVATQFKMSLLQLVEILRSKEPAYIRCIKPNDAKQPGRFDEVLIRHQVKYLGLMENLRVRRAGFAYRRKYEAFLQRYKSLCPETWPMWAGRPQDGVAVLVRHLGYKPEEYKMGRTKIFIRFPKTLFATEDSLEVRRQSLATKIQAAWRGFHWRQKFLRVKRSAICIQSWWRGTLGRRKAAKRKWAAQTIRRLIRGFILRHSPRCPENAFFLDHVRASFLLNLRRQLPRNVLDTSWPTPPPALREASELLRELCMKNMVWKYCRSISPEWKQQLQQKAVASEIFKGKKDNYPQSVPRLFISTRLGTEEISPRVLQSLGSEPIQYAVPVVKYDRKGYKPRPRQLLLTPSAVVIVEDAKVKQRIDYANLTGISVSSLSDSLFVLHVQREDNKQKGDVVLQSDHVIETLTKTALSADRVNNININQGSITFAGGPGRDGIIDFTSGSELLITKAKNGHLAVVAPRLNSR

Legend:
Assay in all cases: co-IP; endogenous proteins from MEFs treated with 10 µM etoposide for 2 h then 10 h in DMEM (untreated cells also tested); NP-40 buffer lysate (2 mg) with 10 µg antibody to NM1, p53-K370, PCAF or rabbit IgG overnight at 4 °C; protein A/G magnetic beads; washes in TBST with 0.1 M NaCl; western blot
[1] = molecular target: p53 (mouse (endogenous in MEFs)) (UniProt P02340)
[2] = molecular target: PCAF (mouse (endogenous in MEFs)) (UniProt Q9JHD1)
[3] = molecular target: Nuclear myosin 1 (mouse (endogenous in MEFs)) (UniProt Q9WTI7)

Row | Substance | binding [1] | binding [2] | binding [3]
1 | Nuclear myosin 1 (from UniProt Q9WTI7-3 1-1044) | binds | binds | –
2 | p53 (from UniProt P02340 1-390) | – | binds | binds
